# No constants are given. Whether binding was seen depends on the method and setting. Some results given as binding are weak or reduced against the parent protein; the word gives no strength.
# Amino acid sequences for entries named in this document (tags omitted). Residues count along the entry.
# UniProt P02769, residues 25-607: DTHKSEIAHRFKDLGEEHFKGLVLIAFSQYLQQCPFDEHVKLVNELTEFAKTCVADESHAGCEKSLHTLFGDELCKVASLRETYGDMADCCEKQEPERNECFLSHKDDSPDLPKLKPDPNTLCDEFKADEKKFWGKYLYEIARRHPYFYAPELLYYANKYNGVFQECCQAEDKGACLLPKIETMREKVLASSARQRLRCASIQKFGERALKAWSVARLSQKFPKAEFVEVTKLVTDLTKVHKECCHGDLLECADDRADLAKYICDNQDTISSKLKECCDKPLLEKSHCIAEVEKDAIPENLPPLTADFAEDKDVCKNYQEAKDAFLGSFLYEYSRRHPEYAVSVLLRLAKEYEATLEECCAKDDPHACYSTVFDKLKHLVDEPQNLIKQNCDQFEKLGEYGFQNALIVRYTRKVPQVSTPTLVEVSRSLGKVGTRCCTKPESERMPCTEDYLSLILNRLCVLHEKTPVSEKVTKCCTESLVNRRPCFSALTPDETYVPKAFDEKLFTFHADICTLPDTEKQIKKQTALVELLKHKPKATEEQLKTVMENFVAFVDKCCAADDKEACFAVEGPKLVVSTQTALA
# Target: Bovine Serum Albumin (BSA, manufactured by Sigma-Aldrich) (bovine) (UniProt P02769)
# Assay: SPR, ligand immobilised on CM5, BSA 1000 nM injected 10 min; grade D = Confirmed to be bound to BSA
binder,measurement,value
QQNAFYEI [polypeptide as set forth in SEQ ID NO: 26 (QQNAFYEI)],binding,binds

# Source: patent publication US20170210777A1
